Patent US20100093634A1 (UNIVERSITY OF MARYLAND BALTIMORE, published 2010)
No constants are given. Whether binding was seen depends on the method and setting. Where a sequence is shown, tags or fusion partners need not be part of it.

Key:
Test in all cases: condition: 2-5 µg of His-tagged adaptor and an equal quantity of GST fusion in 300 µl; pull-down on Ni-NTA beads, anti-GST Western blot
[1] = biological target: His-tagged Dab-2 (PTB-domain clathrin adaptor)
[2] = biological target: His-tagged GULP (PTB-domain clathrin adaptor)
[3] = biological target: His-tagged Numb (PTB-domain clathrin adaptor)

Measured: binding

EVETPHCAMCLYNEKDARARMKRGYDNPNFVLSEVDETDDTQM (peptide, not shown: a dimerising Fc or GST) [GST fusion of the wild-type (WT) ROMK1 C-terminus (amino acids 349-391)]
no binding: all assays above
